From US20100261682A1, “Method and Means for the Treatment of Cachexia” (Bioneris AB, priority 2007, published 2010) come the findings set out here.

For this series, the system named is MAC16 tumour-bearing mice. Put plainly: Body weight, food and water intake in MAC16 tumour-bearing mice treated with lipid soluble alpha-trinositol (Example 5). Particulars: 6 mg/kg and 8 mg/kg. It is filed as in vivo, NMRI mice. The source says: Materials. Lipid soluble alpha trinositol (1-D-tri-O-hexanoyl-myo-inositol 1,2,6-triphosphate) was formed by further esterification of 1-D-Myo-inositol 1,2,6-triphosphate.
Animals. Pure strain male NMRI mice (average body weight 25 g) were transplanted with fragments of the MAC16 tumour subcutaneously into the flank by means of a trochar, selected from donor animals with established weight loss (Bibby M C et al., Characterization of transplantable adenocarcinoma in the mouse colon producing cachexia in the recipient animals. J Natl Cancer Inst 78 (1987) 539-546). Transplanted animals were given a rat and mouse breeding diet (Special Diet Services, Witham, UK) and water at lib. Weight loss was evident 10 to 12 days after tumour implantation. Just prior to the development of weight loss […] were randomized into three groups of six animals each.
Administration of alpha-trinositol. A first experiment was started when the animals had lost about 5% of body weight. Aliquots of lipid soluble alpha-trinositol stock solution corresponding to doses of 6 mg/kg body weight and 8 mg/kg body weight for a 25 g animal were administered subcutaneously three times per day at 8.00, 12.00 and 16.00 hrs. […] Body weight (FIG. 26), tumour volume, and food (FIG. 27) and water (FIG. 28) intake were determined daily (for 5 days) after the last injection. […]

For `CCCCCC(=O)O[C@@H]1[C@@H](OC(=O)CCCCC)[C@@H](OP(=O)(O)O)[C@@H](OP(=O)(O)O)[C@H](OP(=O)(O)O)[C@H]1OC(=O)CCCCC` [lipid soluble alpha trinositol, 1-D-tri-O-hexanoyl-myo-inositol 1,2,6-triphosphate], the food intake result (FIG. 27) is “not affected”. Besides, for the setting “FIG. 28”, the water intake entry was “not affected”.
